# Library screening results

Protein sequences, listed by entry. Tags and fused reporters are not part of them.
UniProt E9BF75, entry or part of it: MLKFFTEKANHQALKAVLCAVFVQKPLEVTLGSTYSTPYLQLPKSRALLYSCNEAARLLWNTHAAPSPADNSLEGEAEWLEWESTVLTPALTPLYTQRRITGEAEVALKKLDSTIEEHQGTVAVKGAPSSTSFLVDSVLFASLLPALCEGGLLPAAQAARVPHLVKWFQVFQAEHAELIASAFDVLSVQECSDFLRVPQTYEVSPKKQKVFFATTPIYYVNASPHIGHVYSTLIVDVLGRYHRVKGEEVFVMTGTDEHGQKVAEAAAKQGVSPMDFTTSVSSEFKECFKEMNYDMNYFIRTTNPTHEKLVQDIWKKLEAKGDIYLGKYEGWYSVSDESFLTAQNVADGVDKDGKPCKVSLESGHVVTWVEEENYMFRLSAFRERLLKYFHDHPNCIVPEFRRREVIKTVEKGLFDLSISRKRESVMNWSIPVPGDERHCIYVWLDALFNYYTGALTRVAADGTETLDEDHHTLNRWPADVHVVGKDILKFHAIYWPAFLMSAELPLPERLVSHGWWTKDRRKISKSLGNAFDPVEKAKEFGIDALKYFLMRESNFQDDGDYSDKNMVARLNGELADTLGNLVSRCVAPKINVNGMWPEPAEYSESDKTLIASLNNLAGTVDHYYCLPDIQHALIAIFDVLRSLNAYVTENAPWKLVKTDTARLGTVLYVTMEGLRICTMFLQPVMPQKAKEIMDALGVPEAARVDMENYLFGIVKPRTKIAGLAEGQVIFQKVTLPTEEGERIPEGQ

The values are deposited in ChEMBL (CHEMBL3988442, “University of Dundee, Small-Polar-MMV Screening Library” (2021)).

Results are percentages, as filed.
How 0% and 100% were set is not recorded. Most values in the screen are low, and negative values occur.
The compounds are a random part of those screened.
A dash means the value is not listed here; it may have been measured.

A: 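Primary screen of methionyl-tRNA synthetase; the read-out is not stated. Target: Methionyl-tRNA synthetase (putative), Leishmania donovani (UniProt E9BF75). The test concentration is not given. The values are filed as inhibition. Of about 68,000 compounds tested this way, about 24 (0.035%) reached 50% or more in at least one test.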
B: 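Assay on Mycobacterium tuberculosis, filed only as a heat shock assay from Cornell; the read-out is not stated. The concentration is filed as 10 mM, unlikely as a test dose, so the dose is not known. Direction is inferred from retests: higher values go with stronger inhibition. Of about 69,000 compounds tested this way, about 930 (1.4%) reached 50% or more in at least one test.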

structure | A | B
CCC(O)CN(C)Cc1nnc2ccccn12 (centres unmarked) | 6.143 | -16.45
CCNc1ncc(C(=O)NC(CCN(C)C)c2ccccc2)cn1 (centres unmarked) | -3.901 | -13.04
CCN(CC)CCNC(=O)c1cnc(-c2ccccc2)nc1 | 7.829 | 16.69
Cc1occc1C(=O)N1CCC2(CCCN(c3ncc(F)cn3)C2)C1 (centres unmarked) | 14.99 | -
CC(C)NC(=O)c1sccc1N(C)S(=O)(=O)c1ccc(Cl)cc1 | 3.521 | -5.782
[H][C@@]12CS(=O)(=O)C[C@]1([H])N(C(=O)c1cc(-c3ccc(C)o3)n[nH]1)CCN2CC | - | -3.424
Cc1ccc(C(=O)N(C)CCOc2ccccc2F)c(=O)[nH]1 | 18.4 | -2.972
Cc1nn(C(C)C)c2cnn(CC(=O)N3CCN(C)CC3)c12 | 8.877 | 18.11
CCn1cc(S(=O)(=O)N2CCC(C)CC2)c(C)n1 | 9.915 | -11.59
Cc1ncsc1C(=O)N1CC[C@@H]2[C@@H](CC1)OCCN2c1cccnc1 | 10.73 | -
O=C(O)C(F)(F)F.O=C(O)C(F)(F)F.[H][C@@]12CCN(Cc3ccc(C)o3)C[C@]1([H])[C@@H](CN1CCCC1)OC2 | - | 5.451
CC1(C(=O)NCc2cccnc2Oc2ccc(F)cc2F)CCCNC1 (centres unmarked) | 9.926 | 6.915
COc1ccc2c(c1)CN(CC1CC1)C(=O)CCN2CC(C)(C)O | 3.514 | -2.285
O=C(Cc1ccc2c(c1)CCC2)N1CCCC1Cn1cccn1 (centres unmarked) | 7.362 | -12.45
CNS(=O)(=O)c1ccccc1N1CCN(C(C)C(N)=O)CC1 (centres unmarked) | 15.57 | -15.79
CCSCCNC(=O)C(c1cccc(C)c1)N(C)C (centres unmarked) | 1.812 | -19.78
[H][C@]12CC[C@]([H])(CN(Cc3ccccc3C)C1)N(CC1CCC1)C2=O | - | -2.428
Cc1nc(S(=O)(=O)N2CCCCc3ccccc32)cn1C | 15.54 | 1.791
CN(C)C(=O)Cn1cnc2c(Br)cccc2c1=O | 1.397 | -8.64
O=C(O)c1ccccc1-c1ccc(CN2CCC(CO)C2)cn1 (centres unmarked) | 9.206 | -14.33
Cc1noc(C)c1CN1C[C@@H](C(=O)O)[C@H](C(C)C)C1 | 8.02 | -11.85
CCNC(=O)[C@@H]1C[C@@H](N)CN1Cc1ccc(-c2ccccc2C#N)o1 | 5.897 | 15.58
OC1CCN(Cc2ccnc(-c3cccnc3)n2)CC1 | 15.53 | -
Cn1c(C2CC2)nc2cc(NC(=O)C3CC=CC3)ccc21 | 14.24 | 1.019
CC(Cn1ccnc1)NC(=O)NCc1ccccn1 (centres unmarked) | 14.74 | -19
CCc1ncnc2c1CCN(Cc1nccs1)CC2.O=C(O)C(F)(F)F | - | 15.5
O=C(c1cc(-n2cnnn2)ccc1Cl)N1CCN(c2ccccc2)CC1 | 15.86 | -1.296
CC(C)CN1CCCC1c1ccc(C(=O)Nc2ccc3[nH]nnc3c2)s1 (centres unmarked) | 12.57 | 18.16
COc1ncccc1NC(=O)c1[nH]nc(C(C)C)c1Br | 16.04 | -11.26
Cc1cnc(N2CCC3(CC2)COCCN(C(C)C)C3)nc1 | 10.08 | -
CSCCC(=O)N1CCCN(c2ccccc2C)CC1 | - | 0.7354
c1ccc(N2CCOC3(CCCN(c4ncccn4)C3)C2)nc1 (centres unmarked) | 11.14 | -
O=C(NCC1CC1)C1=NOC2(CCN(Cc3ccc4c(c3)OCO4)C2)C1 (centres unmarked) | 17.15 | 27.12
Cc1nccn1CCCNC(=O)C1CCCCN1Cc1ccncc1 (centres unmarked) | 13.12 | -5.31
[H][C@@]12CCN(S(=O)(=O)c3ccccc3)C[C@]1(c1nnc(C)o1)CCO2 | - | 53.88
COC(=O)CN1CC2(CCNCC2)COc2ccccc2S1(=O)=O | 17.58 | -
O=C1CNc2ncnc(Nc3cnn(Cc4ccccc4F)c3)c2N1 | 11.83 | -15.64
CN(C)C(=O)NC1COC2(CCN(C(=O)Nc3ccccc3)CC2)C1 (centres unmarked) | 2.439 | -7.372
Cc1ccc(-c2cc(CNCCn3cc(C)cn3)on2)cc1 | 8.075 | 5.729
CCc1nc(C)c(C(=O)N2CCNCC2C(=O)Nc2ccc(C)nc2)o1 (centres unmarked) | 14.98 | 5.208
CC(C)c1nn(C)c(N(C)C)c1CNCc1cscn1.Cl | - | 7.524
[H][C@]12CCC[C@@]1(CO)CN(C(=O)c1cc(C)nc3ccc(C)cc13)C2 | - | -10.78
Cc1cccn2c(CC(=O)N3CCC(Oc4ncccn4)CC3)cnc12 | -1.493 | 2.407
[H][C@@]12CCN(S(=O)(=O)c3ccccc3)C[C@]1(C(=O)NC)CCO2 | - | -4.76
Cc1cnccc1-n1nc(C(C)C)nc1CCc1cnccn1 | 15.85 | 15.68
COCC(=O)Nc1cnc(N2CCCC2)nc1 | 6.832 | 5.082
CNC(=O)c1ccccc1NCc1ncnn1C | 17.96 | -3.378
Cc1ccc(CCC(=O)N2CCOCC2c2ncon2)c(C)c1 (centres unmarked) | 8.38 | -17.15
CC(=O)N1CCCn2nc(CNc3cc(C)ncn3)cc2C1 | 0.5495 | 5.324
Cc1cccc(N(CCC(N)=O)CC(=O)NC2CCCC2)c1 | 9.722 | 4.705
COC[C@@]12CC[C@@H](N3CCOCC3)C[C@H]1CCN(c1ncccc1C)C2 | 14.29 | -
CC1(C)CC(N(Cc2cccnc2)Cc2cccc(F)c2)CC(C)(C)N1 | 13.41 | -
CNC(=O)CNC(=O)Nc1ccc(F)c(Br)c1 | 10.47 | -16.73
NC(=O)N1CCC2(CC1)CN(Cc1cccnc1)C(=O)CO2.O=C(O)C(F)(F)F | - | -31.58
Cc1ccc(Cn2nc(C)c3c(C(=O)O)c(Cl)c(C4CC4)nc32)cc1 | 12.01 | 4.507
Clc1ccccc1Cn1cc(CNC2CCc3ncnn3C2)cn1 (centres unmarked) | 12.57 | -1.952
CCCNC(=O)c1cc(Br)cc(S(=O)(=O)N2CCOCC2)c1F | 20.92 | 7.021
COCC1COCCC12CCN(S(=O)(=O)c1ccc(C)cc1)CC2 (centres unmarked) | 8.791 | 41.89
Cn1cc(CNc2ccc(CCO)cc2)c(-c2ccncc2)n1 | 11.45 | -12.23

For reference, 6 entries once more:

{"structure": "[H][C@@]12CCN(S(=O)(=O)c3ccccc3)C[C@]1(C(=O)NC)CCO2", "B": -4.76}
{"structure": "Clc1ccccc1Cn1cc(CNC2CCc3ncnn3C2)cn1", "stereo": "centres unmarked", "A": 12.57, "B": -1.952}
{"structure": "CNC(=O)c1ccccc1NCc1ncnn1C", "A": 17.96, "B": -3.378}
{"structure": "[H][C@]12CCC[C@@]1(CO)CN(C(=O)c1cc(C)nc3ccc(C)cc13)C2", "B": -10.78}
{"structure": "CC1(C)CC(N(Cc2cccnc2)Cc2cccc(F)c2)CC(C)(C)N1", "A": 13.41}
{"structure": "CC(=O)N1CCCn2nc(CNc3cc(C)ncn3)cc2C1", "A": 0.5495, "B": 5.324}